Values of other authors as cited in patent US20090068174A1, “THERAPEUTIC ALKALINE PROTEASE COMPOSITIONS AND USE IN FACILITATING THE TRANSPORT OF AGENTS ACROSS THE GASTROINTESTINAL MUCOSAL LINING” (Kansas University Medical Center Research Institute, Inc., priority 2007, published 2009).

Legend:
[1] = Table 1; cited from earlier work
[2] = Table 4, cited from earlier work

[2H]N[C@@H](CCCCN)C(=O)O (single isomer, unassigned) [Deuterolysin, reference compound]
pH optimum [1]: 5.0-7.0
Metal requirements [2]: Zn, Ca, Co
pH optimum ([2]; pH optima vary with substrate): pH 6-8

Read-outs that look alike come from different tables or passages of the source.
